In the supplement of paper PMC6411743:
± gives the standard deviation of the averaged measurements. This is a selection; strong and weak results do not stand in their true shares.

What was measured:
Test in all cases: NP40-soluble protein abundance relative to vehicle (solubility fold change) (ratio); higher = more soluble protein in presence of ATP
[1] = biological target: T1, UniProt Q15398-3|Q15398
T1 sequence (whole entry): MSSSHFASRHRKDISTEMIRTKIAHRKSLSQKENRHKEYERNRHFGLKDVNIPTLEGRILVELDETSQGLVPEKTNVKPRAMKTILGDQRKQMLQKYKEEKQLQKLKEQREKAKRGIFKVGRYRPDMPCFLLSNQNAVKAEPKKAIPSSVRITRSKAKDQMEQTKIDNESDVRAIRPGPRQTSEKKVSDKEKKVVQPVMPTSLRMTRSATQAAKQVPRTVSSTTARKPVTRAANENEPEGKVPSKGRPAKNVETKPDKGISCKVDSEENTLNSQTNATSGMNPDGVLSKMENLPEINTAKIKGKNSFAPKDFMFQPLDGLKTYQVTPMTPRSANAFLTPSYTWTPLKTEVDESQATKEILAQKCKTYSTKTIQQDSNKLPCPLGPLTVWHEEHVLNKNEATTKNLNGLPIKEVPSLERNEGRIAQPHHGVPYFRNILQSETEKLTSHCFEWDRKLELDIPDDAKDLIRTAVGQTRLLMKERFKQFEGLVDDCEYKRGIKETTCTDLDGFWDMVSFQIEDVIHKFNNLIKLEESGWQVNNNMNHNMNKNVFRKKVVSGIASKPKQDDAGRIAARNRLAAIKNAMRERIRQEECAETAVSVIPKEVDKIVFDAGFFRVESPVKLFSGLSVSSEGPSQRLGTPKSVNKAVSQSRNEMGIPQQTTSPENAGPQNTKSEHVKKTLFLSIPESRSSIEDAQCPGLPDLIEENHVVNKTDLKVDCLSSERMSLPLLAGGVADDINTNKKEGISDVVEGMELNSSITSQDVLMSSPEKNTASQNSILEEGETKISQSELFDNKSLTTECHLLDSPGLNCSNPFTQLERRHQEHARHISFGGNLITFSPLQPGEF
Summary of the method: (§1)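 Data come from three independent experiments in which Dounce-homogenised Jurkat crude lysate was treated at eight concentrations from 0.1 to 10 mM. Treatment ran 10 min at room temperature and then 3 min at 37 °C, after which 0.8% NP40 and benzonase were added for 60 min at 4 °C before ultracentrifugation. The supernatant underwent TMT labelling and LC-MS/MS, and vsn-normalised intensities were expressed as fold change against the detergent-processed vehicle in each replicate.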

[2] = biological target: T2, UniProt Q15813 and related entries
T2 sequence (whole entry): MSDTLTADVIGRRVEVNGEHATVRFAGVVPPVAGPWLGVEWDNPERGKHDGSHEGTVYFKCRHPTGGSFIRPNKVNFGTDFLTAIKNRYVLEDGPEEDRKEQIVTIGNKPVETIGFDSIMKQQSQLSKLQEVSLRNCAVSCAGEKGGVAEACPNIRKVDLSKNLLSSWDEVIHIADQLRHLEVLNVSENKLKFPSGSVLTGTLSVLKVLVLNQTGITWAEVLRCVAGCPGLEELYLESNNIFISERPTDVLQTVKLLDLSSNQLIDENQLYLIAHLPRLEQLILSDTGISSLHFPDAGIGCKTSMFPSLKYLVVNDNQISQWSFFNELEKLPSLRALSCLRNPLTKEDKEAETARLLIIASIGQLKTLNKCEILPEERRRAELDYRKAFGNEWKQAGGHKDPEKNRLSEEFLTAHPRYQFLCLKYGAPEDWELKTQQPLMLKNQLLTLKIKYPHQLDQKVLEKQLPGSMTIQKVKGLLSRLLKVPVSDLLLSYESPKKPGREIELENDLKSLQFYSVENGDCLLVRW
Summary of the method: as §1

[3] = biological target: T3, UniProt Q16514-2
T3 sequence (whole entry): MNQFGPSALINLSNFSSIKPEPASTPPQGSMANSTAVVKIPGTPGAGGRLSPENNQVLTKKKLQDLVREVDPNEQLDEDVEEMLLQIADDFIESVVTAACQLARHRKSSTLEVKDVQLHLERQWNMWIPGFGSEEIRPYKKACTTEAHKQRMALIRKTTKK
Summary of the method: as §1

[4] = biological target: T4, ZYX (UniProt Q15942)
T4 sequence (whole entry): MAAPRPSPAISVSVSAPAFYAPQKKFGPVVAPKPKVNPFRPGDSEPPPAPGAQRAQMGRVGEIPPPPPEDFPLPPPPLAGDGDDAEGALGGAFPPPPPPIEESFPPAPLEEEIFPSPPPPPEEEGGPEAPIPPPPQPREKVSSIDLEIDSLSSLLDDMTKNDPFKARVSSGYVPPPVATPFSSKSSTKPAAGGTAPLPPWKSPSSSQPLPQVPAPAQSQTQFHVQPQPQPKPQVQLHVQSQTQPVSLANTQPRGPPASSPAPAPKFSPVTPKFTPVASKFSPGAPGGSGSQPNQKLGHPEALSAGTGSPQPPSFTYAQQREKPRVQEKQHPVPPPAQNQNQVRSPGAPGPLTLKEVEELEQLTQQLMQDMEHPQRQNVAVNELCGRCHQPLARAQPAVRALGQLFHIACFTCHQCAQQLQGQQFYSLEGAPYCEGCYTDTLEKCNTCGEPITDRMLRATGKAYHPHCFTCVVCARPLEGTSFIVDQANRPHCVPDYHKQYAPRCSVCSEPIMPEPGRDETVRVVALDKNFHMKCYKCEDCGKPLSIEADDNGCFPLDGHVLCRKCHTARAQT
Summary of the method: as §1

## Nc1ncnc2c1ncn2[C@@H]1O[C@H](COP(=O)(O)OP(=O)(O)OP(=O)(O)O)[C@@H](O)[C@H]1O [adenosine triphosphate]
[1]; concentration: 1mM
  NP40-soluble protein abundance: 0.976 ± 0.029
[1]; concentration: 2mM
  NP40-soluble protein abundance: 0.955 ± 0.027
[1]; concentration: 4mM
  NP40-soluble protein abundance: 0.946 ± 0.017
[1]; concentration: 6mM
  NP40-soluble protein abundance: 0.953 ± 0.023
[1]; concentration: 8mM
  NP40-soluble protein abundance: 0.897 ± 0.025
[1]; concentration: 10mM
  NP40-soluble protein abundance: 0.891 ± 0.025
[2]; concentration: 1mM
  NP40-soluble protein abundance: 0.976 ± 0.011
[2]; concentration: 2mM
  NP40-soluble protein abundance: 0.976 ± 0.013
[2]; concentration: 4mM
  NP40-soluble protein abundance: 0.949 ± 0.013
[2]; concentration: 6mM
  NP40-soluble protein abundance: 0.968 ± 0.051
[2]; concentration: 8mM
  NP40-soluble protein abundance: 0.965 ± 0.025
[2]; concentration: 10mM
  NP40-soluble protein abundance: 0.947 ± 0.023
[3]; concentration: 1mM
  NP40-soluble protein abundance: 1.04 ± 0.13
[3]; concentration: 2mM
  NP40-soluble protein abundance: 1.05 ± 0.1
[3]; concentration: 4mM
  NP40-soluble protein abundance: 1.02 ± 0.082
[3]; concentration: 6mM
  NP40-soluble protein abundance: 1.13 ± 0.14
[3]; concentration: 8mM
  NP40-soluble protein abundance: 1.05 ± 0.098
[3]; concentration: 10mM
  NP40-soluble protein abundance: 1.13 ± 0.12
[4]; concentration: 1mM
  NP40-soluble protein abundance: 0.951 ± 0.045
[4]; concentration: 2mM
  NP40-soluble protein abundance: 0.955 ± 0.019
[4]; concentration: 4mM
  NP40-soluble protein abundance: 0.925 ± 0.019
[4]; concentration: 6mM
  NP40-soluble protein abundance: 0.974 ± 0.011
[4]; concentration: 8mM
  NP40-soluble protein abundance: 0.898 ± 0.032
[4]; concentration: 10mM
  NP40-soluble protein abundance: 0.939 ± 0.019
